“Also recorded” adds a separate entry of the source.
System: TK6 cells
Experiment: Toxicoproteomic analysis of treated TK6 cells (LC-MS/MS, DEPs, enrichment analysis)
Format: cell-based, human
Settings: for DEPs: log2 fold change of ≥2
Protocol: We conducted a proteomic analysis using TK6 cells treated by 4-nitroanthranilic acid that was negative in the short-term treatment and positive in the 24 h treatment. HC Blue No. 2 gave also same test results. 4-Nitroanthranilic acid, but not HC Blue No. 2, increased clearly the mutant efficiency in dose-dependent manner even at the low-dose range in the 24 h treatment (Additional file 1 (Table S1 (No.8)), we selected the chemical for the proteomics. Cell treatment with 4-nitroanthranilic acid was the same as the short-time treatment (4 h, −S9mix) and long-term treatment (24 h, −S9mix) in the TK6 assay. Treatment concentrations were 0, 400, and 800 μg/mL, relatively low toxicity doses, to clearly measure biological responses to the chemical. After treatment, the supernatant was removed by centrifugation (1000 rpm, 5 min). The cell pellet (6 × 10^6 cells) was washed with a 10 mL of ice-cold phosphate-buffered saline (PBS) and centrifuged (repeated twice on ice throughout). The cells were resuspended in 3 mL of PBS containing the protease inhibitor cocktail (Roche), complete EDTA-free (Roche), and 2 × 10^6 cells each were dispensed into three pre-cooled 2.0 mL tubes. After centrifugation, supernatants were removed again, and tubes containing cell pellets were immersed in liquid nitrogen to freeze the cell pellet and stored at − 80 °C.
Each frozen cell pellet was mixed with PTS (phase transfer surfactant) buffer and boiled at 95 °C for 5 min [44]. Lysates were further sonicated three times (15 min per cycle) with a Bioruptor sonicator (Cosmo Bio, Tokyo, Japan). Samples were then reduced with 10 mM TCEP (tris(2-carboxyethyl) phosphine), alkylated with 20 mM iodoacetamide, and sequentially, digested with trypsin (protein weight: 1/50) and Lys-C (protein weight: 1/50) for 16 h at 37 °C. Peptides were elucidated by centrifugation for 10 min at 20,000 g and desalted on a C18-SCX StageTips.
LC-MS/MS was conducted by coupling an UltiMate 3000 Nano LC system (Thermo Scientific, Bremen, Germany) and an HTC-PAL autosampler (CTC Analytics, Zwingen, Switzerland) to a Q Exactive hybrid quadrupole-Orbitrap mass spectrometer (Thermo Scientific). […] The Q Exactive instrument was operated in the data-dependent mode. Survey full-scan MS spectra (m/z 350–1800) were acquired in the Orbitrap with 70,000 resolution after the accumulation of ions to a 3 × 10^6 target value. Dynamic exclusion was set to 10 s. The 12 most intense multiplied charged ions (z ≥ 2) were sequentially accumulated to a 1 × 10^5 target value and fragmented in the collision cell by higher-energy collisional dissociation (HCD) with a maximum injection time of 120 ms and 35,000 resolution. Typical mass spectrometric conditions were: spray voltage, 2 kV; heated capillary temperature, 250 °C; and normalized HCD collision energy, 25%. The MS/MS ion selection threshold was set to 2.5 × 10^4 counts. A 2.0 Da isolation width was chosen.
Raw MS data were processed by MaxQuant (version 1.6.3.3) supported by the Andromeda search engine for peak detection and quantification. MS/MS spectra were searched against the UniProt human database with the following search parameters: full tryptic specificity, up to two missed cleavage sites, carbamidomethylation of cysteine residues set as a fixed modification, and N-terminal protein acetylation and methionine oxidation as variable modifications. Search results were filtered to a maximum FDR (false discovery rate) of 0.01 at protein, and PSM levels.
All NaN values of log2 LFQ intensities were converted to − 7, which is approximately equivalent to the minimum value of the LFQ intensities observed in the present study. Then, fold change values were calculated by dividing LFQ intensities (antilogarithms of the log2 LFQ intensities) into sample treated groups by intensities in non-treated (control) groups, respectively (4 and 24 h treated groups). Then, log2 fold changes were calculated. […]

Nc1cc([N+](=O)[O-])ccc1C(=O)O [4-Nitroanthranilic acid]
LFQ intensity, Ubiquitin-like modifier-activating enzyme 6 (UBA6, A0AVT1) (400µg/mL, 4h): -1.467 | LFQ intensity, Ubiquitin-like modifier-activating enzyme 6 (UBA6, A0AVT1) (400µg/mL, 24h): -1.516 | LFQ intensity, RNA-binding protein 47 (RBM47, A0AV96) (800µg/mL, 4h): -2.739 | LFQ intensity, Ubiquitin-like modifier-activating enzyme 6 (UBA6, A0AVT1) (800µg/mL, 4h): -1.5621 | LFQ intensity, von Willebrand factor A domain-containing protein 8 (VWA8, A3KMH1) (800µg/mL, 4h): -1.1722 | LFQ intensity, Ubiquitin-like modifier-activating enzyme 6 (UBA6, A0AVT1) (800µg/mL, 24h): -1.659 | DEPs (4 h 400 μg/mL group): 359 proteins | DEPs (4 h 800 μg/mL group): 506 proteins | DEPs (24 h 400 μg/mL group): 358 proteins | DEPs (24 h 800 μg/mL group): 420 proteins | Protein expression levels of PDK1, SOD2, DIABLO (24 h treatment, especially 800 μg/mL group): drastically elevated; also recorded: expressed prominently | enrichment of GO:0008631 ~ intrinsic apoptotic signaling pathway in response to oxidative stress (DEPs and specific DEPs in 24 h 800 μg/mL group): drastically increased; also recorded: statistically significance | differentially expressed proteins (DEPs), total (all four groups, log2 fold change of ≥2 vs control): 1078 proteins

Reference: PMC7937321 (Genes and Environment, 2021)
